Assay results from paper doi:10.1101/2024.03.01.24303485.
Changes are numbered by the printed parent chain. Results are given in words; binding and its absence hold for the method and conditions named. For some assays here: Binding seen in cells or lysates may run through a third protein. Some entries that bind do so weakly or less than the wild type. Sequences can lack the tags named with a protein.

Protein sequences, listed by entry. Tags and fused reporters are not part of them. Lines headed by an entry give the natural chain unless they say otherwise; changes in a name come on top.
UniProt Q6P6J0, whole entry: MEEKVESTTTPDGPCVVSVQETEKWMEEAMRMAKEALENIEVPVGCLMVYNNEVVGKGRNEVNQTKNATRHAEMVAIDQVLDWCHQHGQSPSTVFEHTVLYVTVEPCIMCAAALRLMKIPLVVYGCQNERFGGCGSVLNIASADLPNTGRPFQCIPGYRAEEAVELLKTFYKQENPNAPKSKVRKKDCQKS

Assays:
[1] = biological target: T1, mouse ADAT3 A180V, His-tagged (mouse) (UniProt Q6PAT0); assay: pull-down
T1 sequence: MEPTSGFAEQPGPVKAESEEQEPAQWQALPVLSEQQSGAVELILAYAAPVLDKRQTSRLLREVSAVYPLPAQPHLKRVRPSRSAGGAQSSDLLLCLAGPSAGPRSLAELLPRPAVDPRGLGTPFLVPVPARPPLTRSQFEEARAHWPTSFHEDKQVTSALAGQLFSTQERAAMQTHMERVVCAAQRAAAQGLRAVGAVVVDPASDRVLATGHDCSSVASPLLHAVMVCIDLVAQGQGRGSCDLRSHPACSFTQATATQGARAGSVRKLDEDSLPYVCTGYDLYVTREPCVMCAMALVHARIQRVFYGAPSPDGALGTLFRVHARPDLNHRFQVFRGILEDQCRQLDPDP

[2] = biological target: T2, mouse ADAT3 wild type, His-tagged (pnEA-HT3-mADAT3 WT) (mouse) (UniProt Q6PAT0); assay: pull-down
T2 sequence: T1 sequence with V180A

[3] = biological target: T3, mouse ADAT3 A180L, His-tagged (mouse) (UniProt Q6PAT0); assay: pull-down
T3 sequence: T1 sequence with V180L

[4] = biological target: T4, mouse ADAT3 V128M, His-tagged (mouse) (UniProt Q6PAT0); assay: pull-down
T4 sequence: T1 sequence with V128M, V180A

[5] = biological target: T5, mouse ADAT3 A180V, tag removed (as crystallised with ADAT2) (mouse) (UniProt Q6PAT0); assay: crystal structure
T5 sequence: T1 sequence

Measured: binding

mouse ADAT2 wild type, untagged (pnCS-mADAT2 WT) (from UniProt Q6P6J0 1-191) (enzyme)
binds: all assays above
